Some of the results follow.

This experiment has as its target T1, OsSMF1 (Oryza sativa, UniProt Q6ZLB0 1-436).
T1 sequence: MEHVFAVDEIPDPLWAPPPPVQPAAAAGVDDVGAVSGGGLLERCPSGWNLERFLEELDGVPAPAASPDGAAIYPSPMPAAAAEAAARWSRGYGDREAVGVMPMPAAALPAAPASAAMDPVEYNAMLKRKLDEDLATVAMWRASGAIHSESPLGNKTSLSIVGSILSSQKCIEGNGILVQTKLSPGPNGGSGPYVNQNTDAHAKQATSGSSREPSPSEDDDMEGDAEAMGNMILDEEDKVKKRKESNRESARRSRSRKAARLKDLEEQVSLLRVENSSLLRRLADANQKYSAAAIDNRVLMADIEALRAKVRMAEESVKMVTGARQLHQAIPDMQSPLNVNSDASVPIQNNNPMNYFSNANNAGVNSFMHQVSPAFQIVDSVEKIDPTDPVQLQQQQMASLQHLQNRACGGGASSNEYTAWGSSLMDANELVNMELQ
As to the kind of experiment: protein-binding microarray (RPBM); PBS, 2% BSA, 51.3 ng/ul salmon testes DNA, 50 uM zinc acetate, 200 nM TF, 25 C, 1 h; high values mean tight binding. The note with it: protein: recombinant; tags: N-terminal polyhistidine and DsRed monomer fusion (pET32a); chain copies: 2; label: CyDye5-dUTP incorporated in the synthesized complementary strand; 3' TTTTT single-stranded linker to array surface; dsDNA, one strand shown. The method, boiled down: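 For the binding signal, per-feature fluorescence intensity was read in arbitrary units on an Axon 4000B scanner. Before scanning, a 2% BSA-blocked custom Agilent array made double-stranded with Cy5-dUTP was washed after 1 h at 25 °C with 200 nM protein and 50 µM zinc acetate. The proteins were Ni–NTA-purified transcription factors with N-terminal polyhistidine and DsRed fusions, expressed in E. coli BL21-CodonPlus.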
Regarding “AAGAGACCTGTTTATTAGCGTCACTGACAGTCGTTGTCACCGGAGTCACCTAGTGCAG”, the binding signal was 3660 fluorescence intensity (a.u.).
Consider “TATAGAAATTGCTGATTGGTTACGTCGCAACTACTCTGACCGGAGTCACCTAGTGCAG”, for which the binding signal was 3520 fluorescence intensity (a.u.).
Take “ACTTTGTACTAGTTTTCATATTATGTCATTCTTTAACCATCGGAGTCACCTAGTGCAG”: the binding signal is 3650 fluorescence intensity (a.u.).
Regarding “CCTTTGTCAATCTCCACCACATCATCTCCTACCTCGTCCTCGGAGTCACCTAGTGCAG”, the binding signal was 7400 fluorescence intensity (a.u.).
On to “CGAGATGTAAAAGTTGAATATGAAATTGCATATTTGTGGACGGAGTCACCTAGTGCAG”, for which the binding signal is 3820 fluorescence intensity (a.u.).
Regarding “TGACAAAGCAAAGTCTTCTACAAAAGTATTAAACTGACCTCGGAGTCACCTAGTGCAG”, the binding signal is 15800 fluorescence intensity (a.u.).
On to “CATGCTATGTGCTCAAAGGGCAACGGTCGACGTGTGCCTTCGGAGTCACCTAGTGCAG”, for which the binding signal was 4110 fluorescence intensity (a.u.).
The figure for “TCCCCTTCCCCTTGCGTAAGGAAAACGAAAATCTTAAAATCGGAGTCACCTAGTGCAG” is 6370 fluorescence intensity (a.u.); for “CCGTCTCCACGCATCATCGTCTCCCGCTCCTTTTAAACCCCGGAGTCACCTAGTGCAG” it is 3380 fluorescence intensity (a.u.).
For “TTGATTCTGTTAGAGTCACGCACATGACCTCGCTGGTTTTCGGAGTCACCTAGTGCAG”, the binding signal was 3180 fluorescence intensity (a.u.).
For the sequence “GTTAGTTGGCTGACTCCACACGCCTCGCCGTCTCAGTGTCCGGAGTCACCTAGTGCAG”, the binding signal was 4940 fluorescence intensity (a.u.).
Take “TATACTATACCTCTACATATAACGCCACCCGTCGCCTCGCCGGAGTCACCTAGTGCAG”: the binding signal is 3220 fluorescence intensity (a.u.).
“CGAGCACGCGGCGACGCCCACGCCCACGCACACAGCTCGGCGGAGTCACCTAGTGCAG”: the binding signal was 4270 fluorescence intensity (a.u.).
Regarding “TAAACCGCACCCGCGGACGTGACACAGCCACGCTGACTATCGGAGTCACCTAGTGCAG”, the binding signal was 4620 fluorescence intensity (a.u.).
On to “TTTCTTTTACTAATTGTTTGCTAATTAATGAATGTATGGCCGGAGTCACCTAGTGCAG”, for which the binding signal was 31900 fluorescence intensity (a.u.).
The figure for “AATCCCACGCGGTGCACAGTGAGTGCCACAGCACAGAGTGCGGAGTCACCTAGTGCAG” is 3340 fluorescence intensity (a.u.).
Consider “CCGCCTCCGCCGACGTGCGCTGCGGCCCACCTTTGCTTCTCGGAGTCACCTAGTGCAG”, for which the binding signal was 3740 fluorescence intensity (a.u.).
For “TGGAAAATTTGCATTTAGGTCCCAAAGGGCGGCAGGCGATCGGAGTCACCTAGTGCAG” the value was 12500 fluorescence intensity (a.u.); for “CAGAGTGTGGTCCTTGTGGAACAAGCTTACAAGGGTGACACGGAGTCACCTAGTGCAG”, 3510 fluorescence intensity (a.u.).
The figure for “TTATGGACTGATATGGGCCGTTGGATTGGTTTCGGTTTTGCGGAGTCACCTAGTGCAG” is 5480 fluorescence intensity (a.u.).
Consider “AGATTTTGGGTGTGTTTGGTTGCTTGCATTGTTTTAGTCTCGGAGTCACCTAGTGCAG”, for which the binding signal is 3300 fluorescence intensity (a.u.).
Regarding “GAGTTGAAGCCAACAATTCTGACAAACCTAACAAAGATCACGGAGTCACCTAGTGCAG”, the binding signal was 30400 fluorescence intensity (a.u.).
With “CCGCCGCCCGCGCCACCCACGTCGCCGTCCCGCACGACGCCGGAGTCACCTAGTGCAG”, the binding signal was 5010 fluorescence intensity (a.u.).
Take “CCGATCGCGCTCGCCTCGCCTACGTGGCCACTCGCCCCGCCGGAGTCACCTAGTGCAG”: the binding signal was 14400 fluorescence intensity (a.u.).
Regarding “CGCGTACCGACAGGTCACATCGGGGCCATCCTGACCGTCCCGGAGTCACCTAGTGCAG”, the binding signal was 4580 fluorescence intensity (a.u.).
As for “GCAATCCAATTGCATGATCCGGTGCACAATTTACTGACGACGGAGTCACCTAGTGCAG”, the binding signal was 3160 fluorescence intensity (a.u.).
The figure for “ACCCGCGTGCGGCGCGGCGCGTCACCATCCACCGTTTATTCGGAGTCACCTAGTGCAG” is 4180 fluorescence intensity (a.u.); for “GTCGTAGAGCGGCAGCGCGTGGCCCTGCGCCGGGAAGGGGCGGAGTCACCTAGTGCAG” it is 23800 fluorescence intensity (a.u.); for “TGGCTCCCACGTTAACTTAGCCGCCACGTCAGCTAAAACCCGGAGTCACCTAGTGCAG” it is 46600 fluorescence intensity (a.u.).
For the sequence “CTCAACCATTACAAGTGTCATGTCCCTAGTGTTGTAGTGGCGGAGTCACCTAGTGCAG”, the binding signal is 3650 fluorescence intensity (a.u.).
Consider “TCCTGACGGGATGGGGCGAGGCGTGCGTCAGATCGCCTGTCGGAGTCACCTAGTGCAG”, for which the binding signal is 5180 fluorescence intensity (a.u.).
For the sequence “TGACTGACTGACCAGTGACCACAGCCCCGGTTAGCTGGCGCGGAGTCACCTAGTGCAG”, the binding signal was 35800 fluorescence intensity (a.u.).
On to “TCAGTAAAGTCTCTTCTCTTGCTCATGCTAGCCCTGTCATCGGAGTCACCTAGTGCAG”, for which the binding signal is 3930 fluorescence intensity (a.u.).
Regarding “TGTAGGCGTACACTTCACAGATTTGGCACCGGGGCTCCACCGGAGTCACCTAGTGCAG”, the binding signal was 4730 fluorescence intensity (a.u.).
In the case of “ATGGAGCCCCTCTCGACACGTGCGTGCTAATGTTCGATTACGGAGTCACCTAGTGCAG”, the binding signal was 4020 fluorescence intensity (a.u.).
For the sequence “CCGGCGGCAAGCGGCACGGAGGCCGCCGCCGCCTCTGACGCGGAGTCACCTAGTGCAG”, the binding signal was 3360 fluorescence intensity (a.u.).
For the sequence “GCTATGTGTCTTGTGTGTCATTGTTACACATATGGAGATGCGGAGTCACCTAGTGCAG”, the binding signal is 4540 fluorescence intensity (a.u.).
The figure for “AATTCCTGGTGTTAAGCTCTGTGTGGTGTGTGCTCCTATTCGGAGTCACCTAGTGCAG” is 4390 fluorescence intensity (a.u.); for “GATCAGATCGCACGCTGAGACGTATAGACGACGTGGGTCCCGGAGTCACCTAGTGCAG” it is 4650 fluorescence intensity (a.u.).
Take “CTAAATGTTACATACGCGTTGGTGGGGCCGGGGCGGCAGTCGGAGTCACCTAGTGCAG”: the binding signal is 3920 fluorescence intensity (a.u.).
The figure for “TAGGAGTAGTACTGACTCACTGCCTACCACTACTAGTCTCCGGAGTCACCTAGTGCAG” is 6950 fluorescence intensity (a.u.); for “GTGGAGGGTGGGGTGACGTGGTTTCCGGGTTGGTGCAATGCGGAGTCACCTAGTGCAG” it is 34600 fluorescence intensity (a.u.).

The values are drawn from paper PMC7819943, “Rice protein-binding microarrays: a tool to detect cis-acting elements near promoter regions in rice”.
